Reference: patent US20250059231A1, “Protease inhibitors” (priority 2021, published 2025)
Some entries share one result that the patent states for a list of compounds. Where a SMILES comes first, the peptide text is derived from it. [ ]: non-standard residue; d: D form. The star is where a group is joined. Palmitoyl = CCCCCCCCCCCCCCCC(=O)*; hPhe = N[C@@H](CCc1ccccc1)C(=O)O; Phg = N[C@H](C(=O)O)c1ccccc1; hLys = NCCCCC[C@H](N)C(=O)O; β3hK = NCCCC[C@H](N)CC(=O)O; Pip = O=C(O)[C@@H]1CCCCN1; N(Me)OMe = CON(C)*

target: T1, DENV protease (Dengue virus type 2, UniProt P29990); type: biochemical
T1 construct: The virus-encoded dengue protease comprises the amino-terminal 180 amino acids of NS3 (NS3pro) of the polyprotein
Method: Dilutions were made starting from 10 mM stock solutions in DMSO and final concentrations were measured in triplicates. The inhibitors were preincubated for 15 min with DENV protease (100 nM) in the assay buffer (50 mM Tris-HCl pH 9.0, ethylene glycol (10% v/v), and 0.0016% Brij 58). The enzymatic reaction was initiated by the addition of the FRET substrate (final concentration 50 μM) to obtain a final assay volume of 100 μL per well. The enzymatic activity was monitored for 15 min and determined as a slope of relative fluorescence units per second (RFU/s) for each concentration. The mean of the triplicates were plotted against the corresponding concentration in CDDVault to determine the IC50-values. Analogous procedures were used to determine the inhibitory potency on WNV (Kühl et al., J. Med. Chem. 2020, 63 (15): 8179-8197) and ZIKA protease (Nitsche et al., ACS Med. Chem. Lett. 2019 Feb. 14; 10 (2): 168-174). For selectivity screening of active candidates, similar biochemical assays with human serine proteases trypsin (Weigel et al., J. Med. Chem. 2015, 58 (19), 7719-7733.) and/or thrombin (Nitsche et al., J. Med. Chem. 2013, 56 (21), 8389-8403) were used.

Row | Compound | IC50 [µM]
1 | CCCCCCCCCCCCCCCC(=O)N[C@@H](CCCCN)CC(=O)N[C@@H](C)C(=O)N[C@@H](C)CC(=O)N[C@H](CCCCN)C(N)=O (stereo in doubt) [compound 113] | ≤ 10
2 | CCCCCCCCCCCCCCCC(=O)N[C@@H](CCCCN)C(=O)N[C@@H](C)C(=O)N[C@@H](C)C(=O)N[C@@H](CCCCN)C(=O)C(N)=O [compound 9] | ≤ 10
3 | CCCCCCCCCCCCCCCC(=O)N[C@@H](CCCCN)C(=O)N1CCC[C@H]1C(=O)N[C@@H](C)C(=O)N[C@@H](CCCCN)C(=O)C(N)=O [compound 10] | ≤ 10
4 | CCCCCCCCCCCCCCCC(=O)N[C@@H](CCCCN)C(=O)N1CCC[C@H]1C(=O)N[C@@H](Cc1cnc[nH]1)C(=O)N[C@@H](CCc1ccccc1)C(N)=O [compound 11] (Palmitoyl-KPH[hPhe]-NH2) | ≤ 10
5 | CCCCCCCCCCCCCCCC(=O)N[C@@H](CCCCN)C(=O)N1CCC[C@H]1C(=O)N[C@@H](Cc1cnc[nH]1)C(=O)N[C@@H](CCCCN)C(N)=O [compound 12] (Palmitoyl-KPHK-NH2) | ≤ 10
6 | CCCCCCCCCCCCCCCC(=O)N[C@@H](CCCCN)C(=O)N1CCC[C@H]1C(=O)N[C@H](C(=O)N[C@@H](CCCCN)C(N)=O)c1ccccc1 [compound 13] (Palmitoyl-KP[Phg]K-NH2) | ≤ 10
7 | CCCCCCCCCCCCCCCC(=O)N[C@@H](CCCCN)C(=O)N1CCCC[C@H]1C(=O)N[C@@H](Cc1cnc[nH]1)C(=O)N[C@@H](CCCCN)C(N)=O [compound 14] (Palmitoyl-K[Pip]HK-NH2) | ≤ 10
8 | CCCCCCCCCCCCCCCC(=O)N[C@@H](CCCCN)C(=O)N1CCCC[C@H]1C(=O)N[C@@H](C)C(=O)N[C@@H](CCCCN)C(N)=O [compound 15] (Palmitoyl-K[Pip]AK-NH2) | ≤ 10
9 | CCCCCCCCCCCCCCCC(=O)N[C@@H](CCCCN)C(=O)N1CCCC[C@H]1C(=O)N[C@H](C(=O)N[C@@H](CCCCN)C(N)=O)c1ccccc1 [compound 16] (Palmitoyl-K[Pip][Phg]K-NH2) | ≤ 10
10 | CCCCCCCCCCCCCCCC(=O)N[C@@H](CCCCN)C(=O)N[C@@H](C)C(=O)N[C@@H](C)C(=O)N[C@@H](Cc1ccccc1)C(N)=O [compound 17] (Palmitoyl-KAAF-NH2) | ≤ 10
11 | CCCCCCCCCCCCCCCC(=O)N[C@@H](C)C(=O)N[C@@H](CCCNC(=N)N)C(=O)N[C@@H](CCC(N)=O)C(=O)N[C@@H](CCCCN)B(O)O [compound 39] | ≤ 10
12 | CCCCCCCCCCCCCCCC(=O)N[C@@H](CCCNC(=N)N)C(=O)N[C@@H](CCC(N)=O)C(=O)N[C@@H](CCCCN)C(N)=O [compound 40] (Palmitoyl-Arg-Gln-Lys-NH2) | ≤ 10
13 | CCCCCCCCCCCCCCCC(=O)N[C@@H](CCCNC(=N)N)C(=O)N[C@@H](CCC(N)=O)C(=O)N[C@@H](CCCCN)B(O)O [compound 41] | ≤ 10
14 | CC(=O)N[C@@H](C)C(=O)N[C@@H](CCCNC(=N)N)C(=O)N[C@@H](CCC(N)=O)C(=O)N[C@@H](CCCCN)B(O)O [compound 48] | ≤ 10
15 | CCCCCCCCCCCCCCCC(=O)N[C@@H](CCCNC(=N)N)C(=O)N[C@@H](CCC(N)=O)C(=O)N[C@H](Cc1ccccc1)C(N)=O [compound 49] (Palmitoyl-Arg-Gln-[dF]-NH2) | ≤ 10
16 | CCCCCCCCCCCCCCCC(=O)N[C@@H](CCCNC(=N)N)C(=O)N[C@@H](CC(N)=O)C(=O)N[C@@H](Cc1ccccc1)C(N)=O [compound 50] (Palmitoyl-Arg-Asn-Phe-NH2) | ≤ 10
17 | CCCCCCCCCCCCCCCC(=O)N[C@@H](CCCNC(=N)N)C(=O)N[C@@H](C)C(=O)N[C@@H](CCc1ccccc1)C(N)=O [compound 51] (Palmitoyl-Arg-Ala-[hPhe]-NH2) | ≤ 10
18 | CCCCCCCCCCCCCCCC(=O)N[C@@H](CCCCN)C(=O)N[C@@H](CCCCN)C(N)=O [compound 110] | ≤ 10
19 | CCCCCCCCCCCCCCCC(=O)N[C@@H](CCCCN)C(=O)N[C@@H](CCCNC(=N)N)C(N)=O [compound 111] (Palmitoyl-Lys-Arg-NH2) | ≤ 10
20 | CCCCCCCCCCCCCCCC(=O)N[C@@H](CCCNC(=N)N)C(=O)N[C@@H](CCCNC(=N)N)C(N)=O [compound 112] (Palmitoyl-Arg-Arg-NH2) | ≤ 10
21 | CCCCCCCCCCCCCCCC(=O)N[C@@H](CCCCN)CC(=O)N[C@@H](C)C(=O)N[C@H](C)C(=O)N[C@@H](CCCCN)C(N)=O [compound 114] (Palmitoyl-[β3hK]A[dA]K-NH2) | ≤ 10
22 | CCCCCCCCCCCCCCCC(=O)N[C@H](CCCCN)C(=O)N[C@@H](C)C(=O)N[C@@H](C)C(=O)N[C@@H](CCCCN)C(N)=O [compound 115] (Palmitoyl-[dK]AAK-NH2) | ≤ 10
23 | CCCCCCCCCCCCCCCC(=O)N[C@@H](CCCCN)CC(=O)N1CCC[C@H]1C(=O)N[C@@H](C)C(=O)N[C@@H](Cc1ccccc1)C(N)=O [compound 116] (Palmitoyl-[β3hK]PAF-NH2) | ≤ 10

Row | Compound | IC50 [µM]
24 | CCCCCCCCCCCCCCCC(=O)N[C@@H](CCCCN)CC(=O)N1CCC[C@H]1C(=O)N[C@@H](C)C(=O)N[C@@H](CCc1ccccc1)C(N)=O [compound 117] (Palmitoyl-[β3hK]PA[hPhe]-NH2) | ≤ 10
25 | CCCCCCCCCCCCCCCC(=O)N[C@@H](CCCCN)CN1CCC[C@H]1C(=O)N[C@@H](C)C(=O)N[C@H](CCc1ccccc1)C(N)=O [compound 118] | ≤ 10
26 | CCCCCCCCCCCCCCCC(=O)N[C@@H](CCCCN)CC(=O)N1CCC[C@H]1C(=O)N[C@@H](C)C(=O)N[C@H](CCCCN)C(N)=O [compound 119] (Palmitoyl-[β3hK]PA[dK]-NH2) | ≤ 10
27 | CCCCCCCCCCCCCCCC(=O)N[C@@H](CCCCCN)C(=O)N1CCC[C@H]1C(=O)N[C@@H](CCCCN)C(N)=O [compound 121] (Palmitoyl-[hLys]-Pro-Lys-NH2) | ≤ 10
28 | CCCCCCCCCCCCCCCC(=O)N[C@@H](CCCCN)CN1CCC[C@H]1C(=O)N[C@@H](C)C(=O)N[C@H](Cc1c[nH]c2ccccc12)C(N)=O [compound 122] | ≤ 10
29 | CCCCCCCCCCCCCCCC(=O)N[C@@H](CCCCN)C(=O)N1CCC[C@H]1C(=O)N[C@@H](C)C(=O)N[C@H](Cc1ccccc1)C(N)=O [compound 123] (Palmitoyl-KPA[dF]-NH2) | ≤ 10
30 | CCCCCCCCCCCCCCCC(=O)N[C@@H](CCCCN)C(=O)N[C@H](C)C(=O)N[C@@H](CCCCN)C(N)=O [compound 146] (Palmitoyl-Lys-[dA]-Lys-NH2) | ≤ 10
31 | CCCCCCCCCCCCCCCC(=O)N[C@@H](CCCCN)C(=O)N[C@@H](C)C(=O)N[C@@H](C)C(=O)N[C@H](C)C(N)=O [compound 147] (Palmitoyl-KAA[dA]-NH2) | ≤ 10
32 | CCCCCCCCCCCCCCCC(=O)N[C@@H](C)C(=O)N[C@@H](CCCCN)C(=O)N[C@@H](C)C(=O)N[C@H](C)C(N)=O [compound 148] (Palmitoyl-AKA[dA]-NH2) | ≤ 10
33 | CCCCCCCCCCCCCCCC(=O)N[C@@H](C)C(=O)N[C@@H](C)C(=O)N[C@@H](CCCCN)C(=O)N[C@H](C)C(N)=O [compound 149] (Palmitoyl-AAK[dA]-NH2) | ≤ 10
34 | CCCCCCCCCCCCCCCC(=O)N[C@@H](C)C(=O)N[C@@H](C)C(=O)N[C@@H](C)C(=O)N[C@H](CCCCN)C(N)=O [compound 150] (Palmitoyl-AAA[dK]-NH2) | ≤ 10
35 | CCCCCCCCCCCCCCCC(=O)N[C@@H](CCCCN)C(=O)N[C@H](C)C(=O)N[C@@H](C)C(=O)N[C@@H](CCCCN)C(N)=O [compound 158] (Palmitoyl-K[dA]AK-NH2) | ≤ 10
36 | CCCCCCCCCCCCCCCC(=O)N[C@H](CCCCN)C(=O)N[C@@H](C)C(=O)N[C@@H](CCCCN)C(N)=O [compound 159] (Palmitoyl-[dK]-Ala-Lys-NH2) | ≤ 10
37 | CCCCCCCCCCCCCCCC(=O)N[C@@H](CCCCN)C(=O)N[C@@H](C)C(=O)N[C@H](CCCCN)C(N)=O [compound 160] (Palmitoyl-Lys-Ala-[dK]-NH2) | ≤ 10
38 | CCCCCCCCCCCCCCCC(=O)N[C@@H](CCCNC(=N)N)C(=O)N[C@@H](CCCCN)C(N)=O [compound 161] (Palmitoyl-Arg-Lys-NH2) | ≤ 10
39 | CCCCCCCCCCCCCCCC(=O)N[C@@H](CCCCC(=N)N)C(=O)N[C@@H](Cc1c[nH]cn1)C(N)=O [compound 170] | ≤ 10
40 | CCCCCCCCCCCCCCCC(=O)N[C@@H](CCCCN)C(=O)N[C@@H](C)C(=O)N[C@@H](C)C(=O)N[C@H](Cc1c[nH]cn1)C(N)=O [compound 171] (Palmitoyl-KAA[dH]-NH2) | ≤ 10
41 | CCCCCCCCCCCCCCCC(=O)N[C@@H](CCCCN)C(=O)N[C@@H](C)C(=O)N[C@@H](C)C(=O)N[C@@H](CCc1c[nH]cn1)C(N)=O [compound 172] | ≤ 10
42 | CCCCCCCCCCCCCCCC(=O)N[C@@H](CCCCN)C(=O)N[C@@H](C)C(=O)N[C@@H](C)C(=O)N[C@H](CCc1c[nH]cn1)C(N)=O [compound 173] | ≤ 10
43 | CCCCCCCCCCCCCCCC(=O)N[C@@H](CCCCN)C(=O)N[C@@H](C)C(=O)N[C@@H](CCCCN)C(C)=O [compound 175] | ≤ 10
44 | CCCCCCCCCCCCCCCC(=O)N[C@@H](CCCCN)C(=O)N[C@@H](C)C(=O)N[C@@H](CCCCN)C(=O)C(N)=O [compound 176] | ≤ 10
45 | CCCCCCCCCCCCCCCC(=O)N[C@@H](CCCCN)C(=O)N[C@@H](C)C(=O)N[C@@H](C)C(=O)N[C@@H](CCCCN)C(=O)N(C)OC [compound 177] (Palmitoyl-KAAK-{N(Me)OMe}) | ≤ 10
